PubChem BioAssay AID1159578 – Peter MacCallum Cancer Centre | 2015
This is an unselected part of about 18,000 reagents tested. About 1,030 of all reagents (5.7%) were called active. 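Inactive calls also include pools with fewer than 3300 nuclei, whose migration was not assessed.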 The raw values are shown without normalisation. Entries without a mark were called inactive.

- Assay: 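siRNA pools altering how lymphatic endothelial cells close a scratch wound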 (primary screen)
- Cells: human lymphatic endothelial cells
- Reagent: siRNA pool against human genes, 40 nM
- Time to read-out: 48 h after transfection
- Measured: 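Cells stained with dye and imaged after a scratch; covered wound area and nuclei counted, duplicates averaged, migration set against mock wells and turned into a robust z-score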
- Direction: migration robust z-score: higher = faster migration into the scratch; migration relative to mock: higher = more scratch area covered than mock; nuclei per well: higher = more cells in the well
- Active means: 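Pools averaging fewer than 3300 nuclei are never called; remaining pools count as changed when migration robust z lies outside -2 to 2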
- Meaning of the calls: active = migration changed; inactive = no migration change, or too few cells

gene	migration robust z-score	migration class with cell-count check	migration relative to mock	nuclei per well, duplicate mean
CACNG1	-0.75	migration z between -2 and 2; enough cells	0.66	5312
B4GALNT1	-0.62	migration z between -2 and 2; enough cells	0.68	5710
UBXN1	-0.09	migration z between -2 and 2; enough cells	0.86	4566
CYP19A1	1.25	migration z between -2 and 2; enough cells	1.04	5889
NFX1	-0.57	migration z between -2 and 2; enough cells	0.7	6392
ALDH1A3	-0.86	migration z between -2 and 2; enough cells	0.66	7043
FKTN	-1.53	migration z between -2 and 2; enough cells	0.49	5696
MTHFD1	1.69	migration z between -2 and 2; enough cells	1.13	5972
PPP2CB	0.03	migration z between -2 and 2; enough cells	0.81	4945
WFDC10A	-1.47	migration z between -2 and 2; enough cells	0.5	5386
ZNF703	-3.09 (active)	migration z below -2; enough cells	0.1	3375
H3C7	-0.26	migration z between -2 and 2; enough cells	0.82	4388
SUV39H1	-0.64	migration z between -2 and 2; enough cells	0.68	5789
CPS1	1.92	migration z between -2 and 2; enough cells	1.18	5934
PIK3C3	-0.13	migration z between -2 and 2; enough cells	0.78	4692
ABI2	-0.69	migration z between -2 and 2; enough cells	0.7	5880
NOP16	0.94	migration z between -2 and 2; enough cells	1.13	6452
CRIP1	-0.01	migration z between -2 and 2; enough cells	0.88	5205
ZFP82	-1.11	migration z between -2 and 2; enough cells	0.6	5280
HLA-DMA	-0.62	migration z between -2 and 2; enough cells	0.68	5838
CCDC141	-0.48	migration z between -2 and 2; enough cells	0.76	6833
DEK	0.7	migration z between -2 and 2; enough cells	0.94	5010
OR4K2	0.15	under 3300 nuclei; migration not judged	0.92	2914
SFTPC	1.16	migration z between -2 and 2; enough cells	1.19	6992
ARID5B	0	migration z between -2 and 2; enough cells	0.8	6662
UTP6	-1.91	migration z between -2 and 2; enough cells	0.38	3942
NCOR2	0.29	migration z between -2 and 2; enough cells	0.86	6354
CLDN6	-0.39	migration z between -2 and 2; enough cells	0.78	5447
ICA1	-0.34	migration z between -2 and 2; enough cells	0.8	4896
EAPP	0.17	migration z between -2 and 2; enough cells	0.92	6728
ILDR2	0.28	migration z between -2 and 2; enough cells	0.96	5682
CFAP43	0.22	migration z between -2 and 2; enough cells	0.95	5160
SEMA4A	0.02	migration z between -2 and 2; enough cells	0.89	5280
PAX2	0.5	migration z between -2 and 2; enough cells	0.9	4536
RABAC1	0.38	migration z between -2 and 2; enough cells	0.99	5795
HYDIN	0.88	migration z between -2 and 2; enough cells	1.12	5536
TMEM11	-1.27	migration z between -2 and 2; enough cells	0.56	4852
ZNF595	-1.23	migration z between -2 and 2; enough cells	0.56	5664
ZNF709	0.56	migration z between -2 and 2; enough cells	1.03	5969
OR2B6	-0.05	migration z between -2 and 2; enough cells	0.88	5226
RAB11FIP2	-0.21	migration z between -2 and 2; enough cells	0.83	6334
TMEM134	0.04	migration z between -2 and 2; enough cells	0.89	3938
EFCAB14	-0.88	migration z between -2 and 2; enough cells	0.66	6270
RAP1B	1.14	migration z between -2 and 2; enough cells	1.02	6372
OR7D4	0.86	migration z between -2 and 2; enough cells	1.1	5608

Next part, starting with the last 10 of the part before.
gene	migration robust z-score	migration class with cell-count check	migration relative to mock	nuclei per well, duplicate mean
HYDIN	0.88	migration z between -2 and 2; enough cells	1.12	5536
TMEM11	-1.27	migration z between -2 and 2; enough cells	0.56	4852
ZNF595	-1.23	migration z between -2 and 2; enough cells	0.56	5664
ZNF709	0.56	migration z between -2 and 2; enough cells	1.03	5969
OR2B6	-0.05	migration z between -2 and 2; enough cells	0.88	5226
RAB11FIP2	-0.21	migration z between -2 and 2; enough cells	0.83	6334
TMEM134	0.04	migration z between -2 and 2; enough cells	0.89	3938
EFCAB14	-0.88	migration z between -2 and 2; enough cells	0.66	6270
RAP1B	1.14	migration z between -2 and 2; enough cells	1.02	6372
OR7D4	0.86	migration z between -2 and 2; enough cells	1.1	5608
PNMA2	0.54	migration z between -2 and 2; enough cells	1.02	6352
COMMD2	0.45	migration z between -2 and 2; enough cells	1	5716
PRAC1	0.38	migration z between -2 and 2; enough cells	0.98	5520
IL36A	-0.39	migration z between -2 and 2; enough cells	0.78	7388
LIN7C	1.43	migration z between -2 and 2; enough cells	1.25	6433
RSPH14	-0.32	migration z between -2 and 2; enough cells	0.8	6900
XCL2	0.86	migration z between -2 and 2; enough cells	1.12	5060
PDHA2	0.03	migration z between -2 and 2; enough cells	0.81	4386
SLC4A1AP	-0.52	migration z between -2 and 2; enough cells	0.75	7947
MAPK8IP2	1.26	migration z between -2 and 2; enough cells	1.21	5832
OR52L1	-1.46	migration z between -2 and 2; enough cells	0.5	5224
KNDC1	-1.52	under 3300 nuclei; migration not judged	0.48	2666
B3GAT1	-0.9	migration z between -2 and 2; enough cells	0.63	5068
MAGEA2B	1	migration z between -2 and 2; enough cells	1.14	6336
KLF16	-0.65	under 3300 nuclei; migration not judged	0.68	3274
DACH1	-0.44	migration z between -2 and 2; enough cells	0.72	6476
NDUFAF2	0.21	migration z between -2 and 2; enough cells	0.94	5736
KCNJ4	-0.47	migration z between -2 and 2; enough cells	0.72	4568
MFNG	-1.38	migration z between -2 and 2; enough cells	0.54	6970
PSD	-0.32	migration z between -2 and 2; enough cells	0.8	4732
ACO2	0.73	migration z between -2 and 2; enough cells	0.94	6603
RXFP3	-2.05 (active)	migration z below -2; enough cells	0.41	7184
PROSER3	0.17	migration z between -2 and 2; enough cells	0.93	5969
ARID5A	-1.23	migration z between -2 and 2; enough cells	0.56	5706
SERPINB5	0.94	migration z between -2 and 2; enough cells	0.98	6063
SACK1E	-2.46 (active)	migration z below -2; enough cells	0.26	3590
SPR	0.64	migration z between -2 and 2; enough cells	0.93	5718
CYS1	-0.3	migration z between -2 and 2; enough cells	0.8	5456
